Laboratory results as given in the supplement of paper PMC12819154, “High-throughput peptide-centric local stability assay extends protein–ligand identification to membrane proteins, tissues and bacteria” (Nature Structural & Molecular Biology, 2025).
The list shows a part of the results. Small differences around the control level are noise.

By UniProt entry, the sequences of proteins in these tests, tags left out. Where a name states a change or a piece, a line headed by the entry shows the natural chain unless it says otherwise.
UniProt P29319: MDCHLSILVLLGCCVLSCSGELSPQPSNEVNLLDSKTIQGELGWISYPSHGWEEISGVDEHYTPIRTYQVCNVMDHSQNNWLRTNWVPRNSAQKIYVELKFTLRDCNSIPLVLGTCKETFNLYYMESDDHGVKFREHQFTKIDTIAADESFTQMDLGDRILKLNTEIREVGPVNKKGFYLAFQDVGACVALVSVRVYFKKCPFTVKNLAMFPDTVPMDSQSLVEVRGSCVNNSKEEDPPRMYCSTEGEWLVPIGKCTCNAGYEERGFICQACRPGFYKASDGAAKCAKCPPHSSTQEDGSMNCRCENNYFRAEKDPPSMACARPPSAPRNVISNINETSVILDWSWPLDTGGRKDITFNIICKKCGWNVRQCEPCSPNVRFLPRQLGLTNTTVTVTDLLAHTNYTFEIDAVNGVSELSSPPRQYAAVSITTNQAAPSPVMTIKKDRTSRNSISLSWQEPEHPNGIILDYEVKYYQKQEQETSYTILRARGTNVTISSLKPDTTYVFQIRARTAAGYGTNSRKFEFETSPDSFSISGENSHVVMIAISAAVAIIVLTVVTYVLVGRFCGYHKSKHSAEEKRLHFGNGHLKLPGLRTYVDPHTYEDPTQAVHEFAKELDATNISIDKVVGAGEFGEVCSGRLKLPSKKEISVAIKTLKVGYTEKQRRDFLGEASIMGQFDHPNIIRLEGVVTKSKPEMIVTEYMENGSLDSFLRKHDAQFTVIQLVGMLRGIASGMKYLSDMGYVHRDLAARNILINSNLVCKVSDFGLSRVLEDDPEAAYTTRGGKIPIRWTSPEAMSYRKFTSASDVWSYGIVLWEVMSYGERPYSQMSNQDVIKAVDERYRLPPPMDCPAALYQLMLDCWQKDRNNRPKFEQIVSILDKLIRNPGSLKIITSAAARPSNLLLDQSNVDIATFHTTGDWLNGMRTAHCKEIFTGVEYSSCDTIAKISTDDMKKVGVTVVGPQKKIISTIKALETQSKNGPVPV
UniProt P55050: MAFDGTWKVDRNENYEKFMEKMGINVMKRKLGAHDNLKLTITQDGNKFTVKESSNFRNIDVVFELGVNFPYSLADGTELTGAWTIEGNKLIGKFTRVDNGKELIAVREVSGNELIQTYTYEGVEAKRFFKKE
UniProt P51432: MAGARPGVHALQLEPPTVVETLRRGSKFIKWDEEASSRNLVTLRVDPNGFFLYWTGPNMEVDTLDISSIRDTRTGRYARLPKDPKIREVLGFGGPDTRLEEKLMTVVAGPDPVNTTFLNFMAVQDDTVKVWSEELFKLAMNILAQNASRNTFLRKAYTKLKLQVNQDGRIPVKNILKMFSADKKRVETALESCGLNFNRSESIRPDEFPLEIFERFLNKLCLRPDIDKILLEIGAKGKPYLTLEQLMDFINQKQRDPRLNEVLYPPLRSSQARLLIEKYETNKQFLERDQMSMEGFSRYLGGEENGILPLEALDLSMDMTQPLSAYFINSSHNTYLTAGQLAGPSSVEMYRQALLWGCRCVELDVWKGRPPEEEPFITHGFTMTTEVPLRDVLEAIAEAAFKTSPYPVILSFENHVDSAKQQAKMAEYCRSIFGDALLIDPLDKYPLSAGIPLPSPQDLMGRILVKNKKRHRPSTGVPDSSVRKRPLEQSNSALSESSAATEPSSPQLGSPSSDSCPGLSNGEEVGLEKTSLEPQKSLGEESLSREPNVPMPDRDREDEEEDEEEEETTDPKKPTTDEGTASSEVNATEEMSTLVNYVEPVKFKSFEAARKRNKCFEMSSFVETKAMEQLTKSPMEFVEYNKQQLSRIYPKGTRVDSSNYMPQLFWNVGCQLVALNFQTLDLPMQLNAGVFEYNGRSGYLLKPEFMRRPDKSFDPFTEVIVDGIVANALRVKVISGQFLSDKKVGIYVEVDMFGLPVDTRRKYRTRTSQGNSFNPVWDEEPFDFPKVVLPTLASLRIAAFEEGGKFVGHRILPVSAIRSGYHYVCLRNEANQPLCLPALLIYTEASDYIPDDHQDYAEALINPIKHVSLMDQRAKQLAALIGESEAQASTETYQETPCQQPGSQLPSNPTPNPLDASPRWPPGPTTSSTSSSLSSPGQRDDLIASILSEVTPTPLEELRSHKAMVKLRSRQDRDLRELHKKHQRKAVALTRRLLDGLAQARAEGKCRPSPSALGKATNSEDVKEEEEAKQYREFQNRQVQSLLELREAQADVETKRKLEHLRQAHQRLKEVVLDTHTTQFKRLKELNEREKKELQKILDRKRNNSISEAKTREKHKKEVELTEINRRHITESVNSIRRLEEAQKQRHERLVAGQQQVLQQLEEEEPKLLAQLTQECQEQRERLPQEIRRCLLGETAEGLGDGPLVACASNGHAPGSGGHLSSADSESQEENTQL
UniProt P50544: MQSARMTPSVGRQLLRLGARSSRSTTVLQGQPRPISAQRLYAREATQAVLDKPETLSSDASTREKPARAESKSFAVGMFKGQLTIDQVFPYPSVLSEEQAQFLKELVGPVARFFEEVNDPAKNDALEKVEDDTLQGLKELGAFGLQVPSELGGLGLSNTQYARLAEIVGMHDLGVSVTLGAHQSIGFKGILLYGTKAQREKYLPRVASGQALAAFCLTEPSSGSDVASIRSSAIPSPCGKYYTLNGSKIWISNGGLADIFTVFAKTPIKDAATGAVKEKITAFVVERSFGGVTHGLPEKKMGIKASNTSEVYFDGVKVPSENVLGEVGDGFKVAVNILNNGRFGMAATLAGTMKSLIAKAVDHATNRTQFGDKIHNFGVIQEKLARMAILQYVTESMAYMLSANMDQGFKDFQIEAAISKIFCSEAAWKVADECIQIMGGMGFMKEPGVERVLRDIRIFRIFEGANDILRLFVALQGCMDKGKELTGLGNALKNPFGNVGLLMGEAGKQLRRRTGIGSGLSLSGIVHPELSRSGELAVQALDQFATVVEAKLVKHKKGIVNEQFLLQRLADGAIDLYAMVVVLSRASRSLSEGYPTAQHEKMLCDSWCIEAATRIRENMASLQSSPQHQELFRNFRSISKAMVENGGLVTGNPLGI
UniProt P32507, whole entry: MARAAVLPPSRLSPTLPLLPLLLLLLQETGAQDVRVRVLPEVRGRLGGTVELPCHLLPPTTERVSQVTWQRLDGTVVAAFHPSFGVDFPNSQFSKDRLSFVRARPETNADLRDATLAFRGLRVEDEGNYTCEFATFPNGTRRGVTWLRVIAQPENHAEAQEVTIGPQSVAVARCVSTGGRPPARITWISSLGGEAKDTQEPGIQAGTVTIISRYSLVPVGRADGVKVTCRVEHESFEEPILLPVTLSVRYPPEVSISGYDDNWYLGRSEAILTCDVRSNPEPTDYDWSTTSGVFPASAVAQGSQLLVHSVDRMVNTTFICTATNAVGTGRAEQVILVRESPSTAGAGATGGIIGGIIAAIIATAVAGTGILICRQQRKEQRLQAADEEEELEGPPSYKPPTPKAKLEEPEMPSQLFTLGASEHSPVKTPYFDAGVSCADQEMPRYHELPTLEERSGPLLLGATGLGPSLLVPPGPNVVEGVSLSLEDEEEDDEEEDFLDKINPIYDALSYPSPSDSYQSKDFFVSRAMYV
UniProt P48428: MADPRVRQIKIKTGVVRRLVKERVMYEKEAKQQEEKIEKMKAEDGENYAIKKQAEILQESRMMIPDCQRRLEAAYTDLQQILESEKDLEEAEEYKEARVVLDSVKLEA
UniProt P32020: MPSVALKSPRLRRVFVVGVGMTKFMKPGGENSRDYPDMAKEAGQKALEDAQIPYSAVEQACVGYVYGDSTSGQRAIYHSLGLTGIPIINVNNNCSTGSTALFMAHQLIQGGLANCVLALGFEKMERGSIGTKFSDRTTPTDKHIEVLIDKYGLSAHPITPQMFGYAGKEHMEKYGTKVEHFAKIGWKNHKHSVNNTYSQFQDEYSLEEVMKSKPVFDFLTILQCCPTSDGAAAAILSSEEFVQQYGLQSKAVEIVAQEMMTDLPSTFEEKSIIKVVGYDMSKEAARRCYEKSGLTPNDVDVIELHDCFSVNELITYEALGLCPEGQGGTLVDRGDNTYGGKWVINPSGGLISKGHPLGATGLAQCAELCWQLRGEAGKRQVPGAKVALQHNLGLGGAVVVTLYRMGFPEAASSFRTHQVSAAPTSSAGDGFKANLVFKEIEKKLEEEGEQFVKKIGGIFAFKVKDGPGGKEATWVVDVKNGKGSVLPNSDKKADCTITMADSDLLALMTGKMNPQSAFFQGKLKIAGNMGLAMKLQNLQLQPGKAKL
UniProt P54822: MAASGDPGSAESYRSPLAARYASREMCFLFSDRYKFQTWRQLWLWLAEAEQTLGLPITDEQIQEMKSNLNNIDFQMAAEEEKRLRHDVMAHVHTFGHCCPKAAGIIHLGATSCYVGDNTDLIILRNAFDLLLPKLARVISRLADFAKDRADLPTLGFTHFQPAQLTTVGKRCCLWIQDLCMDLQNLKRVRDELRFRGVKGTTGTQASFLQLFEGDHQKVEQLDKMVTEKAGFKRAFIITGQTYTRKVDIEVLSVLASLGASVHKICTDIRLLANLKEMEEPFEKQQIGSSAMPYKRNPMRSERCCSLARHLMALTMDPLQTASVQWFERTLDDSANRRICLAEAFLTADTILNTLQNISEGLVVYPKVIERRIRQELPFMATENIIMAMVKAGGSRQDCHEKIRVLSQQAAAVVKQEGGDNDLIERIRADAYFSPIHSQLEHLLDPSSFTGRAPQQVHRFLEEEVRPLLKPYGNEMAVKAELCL
UniProt P50172: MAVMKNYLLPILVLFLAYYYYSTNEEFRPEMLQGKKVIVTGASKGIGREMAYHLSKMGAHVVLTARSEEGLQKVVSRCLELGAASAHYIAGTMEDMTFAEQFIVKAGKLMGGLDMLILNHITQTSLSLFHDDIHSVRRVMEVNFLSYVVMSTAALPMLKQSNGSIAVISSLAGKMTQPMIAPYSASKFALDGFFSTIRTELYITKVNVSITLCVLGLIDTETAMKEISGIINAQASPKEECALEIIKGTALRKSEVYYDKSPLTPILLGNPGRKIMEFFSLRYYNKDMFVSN
UniProt P42925: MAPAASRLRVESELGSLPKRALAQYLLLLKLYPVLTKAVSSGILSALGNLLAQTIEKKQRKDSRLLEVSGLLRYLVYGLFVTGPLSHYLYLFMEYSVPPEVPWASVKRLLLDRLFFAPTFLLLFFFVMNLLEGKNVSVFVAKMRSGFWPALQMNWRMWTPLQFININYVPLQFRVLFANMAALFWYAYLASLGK
UniProt P48036: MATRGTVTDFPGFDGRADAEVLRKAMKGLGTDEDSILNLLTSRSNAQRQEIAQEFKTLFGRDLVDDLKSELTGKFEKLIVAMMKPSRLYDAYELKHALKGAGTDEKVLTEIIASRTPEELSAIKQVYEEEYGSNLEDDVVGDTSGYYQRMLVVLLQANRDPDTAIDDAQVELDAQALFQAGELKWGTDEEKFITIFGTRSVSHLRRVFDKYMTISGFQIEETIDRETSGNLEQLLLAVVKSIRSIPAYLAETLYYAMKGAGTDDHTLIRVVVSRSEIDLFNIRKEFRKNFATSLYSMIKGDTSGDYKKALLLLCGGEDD
UniProt P55264: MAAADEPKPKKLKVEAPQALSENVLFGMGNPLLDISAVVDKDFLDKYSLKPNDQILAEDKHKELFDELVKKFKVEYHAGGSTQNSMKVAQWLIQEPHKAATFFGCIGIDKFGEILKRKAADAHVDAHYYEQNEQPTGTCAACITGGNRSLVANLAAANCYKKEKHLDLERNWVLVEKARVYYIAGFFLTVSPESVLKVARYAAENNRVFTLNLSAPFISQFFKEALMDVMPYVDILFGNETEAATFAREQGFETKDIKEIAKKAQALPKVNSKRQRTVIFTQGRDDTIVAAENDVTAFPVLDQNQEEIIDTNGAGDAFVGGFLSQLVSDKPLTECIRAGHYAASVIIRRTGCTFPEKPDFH
UniProt P53986: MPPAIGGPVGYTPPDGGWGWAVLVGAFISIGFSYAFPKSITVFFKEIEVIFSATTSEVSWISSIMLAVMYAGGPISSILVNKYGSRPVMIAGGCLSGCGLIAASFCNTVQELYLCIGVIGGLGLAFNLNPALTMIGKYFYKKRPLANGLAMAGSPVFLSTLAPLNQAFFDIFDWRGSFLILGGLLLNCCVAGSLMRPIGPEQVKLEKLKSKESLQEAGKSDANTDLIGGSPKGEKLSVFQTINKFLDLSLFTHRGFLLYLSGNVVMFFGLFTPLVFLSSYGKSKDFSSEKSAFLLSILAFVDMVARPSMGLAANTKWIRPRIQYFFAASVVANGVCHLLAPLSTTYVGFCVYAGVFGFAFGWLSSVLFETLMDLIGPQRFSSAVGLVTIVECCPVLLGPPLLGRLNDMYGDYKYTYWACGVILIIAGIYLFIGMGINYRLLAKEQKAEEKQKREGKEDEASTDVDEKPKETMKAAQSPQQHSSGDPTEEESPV
UniProt P34022, whole entry: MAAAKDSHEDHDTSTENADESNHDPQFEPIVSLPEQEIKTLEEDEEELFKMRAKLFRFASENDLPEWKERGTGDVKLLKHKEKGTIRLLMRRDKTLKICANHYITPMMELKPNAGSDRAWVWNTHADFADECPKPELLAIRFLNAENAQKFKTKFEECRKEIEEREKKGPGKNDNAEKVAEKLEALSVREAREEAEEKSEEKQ

The targets below were run with CN[C@@H]1C[C@H]2O[C@@](C)([C@@H]1OC)n1c3ccccc3c3c4c(c5c6ccccc6n2c5c31)C(=O)NC4 [staurosporine] (assay: log2 fold change of pooled soluble protein (PISA), ligand vs vehicle (log2 ratio); higher = more thermally stabilized). Details: ligand concentration: 20 uM; assay format: PISA pool 52.9/55.5/58.6 C.

| Target | log2 fold change of pooled soluble protein |
| --- | --- |
| UniProt P29319 | 0.103 |
| UniProt P55050 | -0.11 |
| UniProt P51432 | -0.27 |
| UniProt P45700 | 0.0564 |
| UniProt P50431 | 0.0917 |
| UniProt P50544 | 0.0681 |
| UniProt P32507 | -0.101 |
| UniProt P55104 | 0.131 |
| UniProt P48428 | -0.146 |
| UniProt P52479 | 0.0509 |
| UniProt P48722 | -0.165 |
| UniProt P54276 | 0.299 |
| UniProt P47963 | -0.124 |
| UniProt P32020 | -0.0115 |
| UniProt P35822 | -0.106 |
| UniProt P35802 | 0.0948 |
| UniProt P29533 | 0.0709 |
| UniProt P55772 | -0.0822 |
| UniProt P52623 | 0.0547 |

| Target | log2 fold change of pooled soluble protein |
| --- | --- |
| UniProt P39061 | 0.154 |
| UniProt P35505 | -0.054 |
| UniProt P47757 | 0.0255 |
| UniProt P50446 | -0.617 |
| UniProt P54822 | -0.00278 |
| UniProt P47811 | 0.0759 |
| UniProt P55096 | 0.126 |
| UniProt P50172 | -0.0767 |
| UniProt P40630 | -0.101 |
| UniProt P42925 | 0.26 |
| UniProt P48036 | -0.0224 |
| UniProt P32067 | 0.0154 |
| UniProt P28665 | 0.0161 |
| UniProt P53808 | -0.0122 |
| UniProt P55264 | 0.0103 |
| UniProt P53986 | 0.11 |
| UniProt P46414 | -0.059 |
| UniProt P34022 | 0.121 |

Looked up one by one from the entries so far, 2 records:

| Target | log2 fold change of pooled soluble protein |
| --- | --- |
| UniProt P50446 | -0.617 |
| UniProt P48722 | -0.165 |
